Results are given in words; binding and its absence hold for the method and conditions named. Some entries that bind do so weakly or less than the wild type.
Assays:
[1] = target: T1, denatured human FXII (human) (UniProt P00748); assay: dot blot on NC membrane, anti-6HIS-HRP detection
T1 sequence (looked up): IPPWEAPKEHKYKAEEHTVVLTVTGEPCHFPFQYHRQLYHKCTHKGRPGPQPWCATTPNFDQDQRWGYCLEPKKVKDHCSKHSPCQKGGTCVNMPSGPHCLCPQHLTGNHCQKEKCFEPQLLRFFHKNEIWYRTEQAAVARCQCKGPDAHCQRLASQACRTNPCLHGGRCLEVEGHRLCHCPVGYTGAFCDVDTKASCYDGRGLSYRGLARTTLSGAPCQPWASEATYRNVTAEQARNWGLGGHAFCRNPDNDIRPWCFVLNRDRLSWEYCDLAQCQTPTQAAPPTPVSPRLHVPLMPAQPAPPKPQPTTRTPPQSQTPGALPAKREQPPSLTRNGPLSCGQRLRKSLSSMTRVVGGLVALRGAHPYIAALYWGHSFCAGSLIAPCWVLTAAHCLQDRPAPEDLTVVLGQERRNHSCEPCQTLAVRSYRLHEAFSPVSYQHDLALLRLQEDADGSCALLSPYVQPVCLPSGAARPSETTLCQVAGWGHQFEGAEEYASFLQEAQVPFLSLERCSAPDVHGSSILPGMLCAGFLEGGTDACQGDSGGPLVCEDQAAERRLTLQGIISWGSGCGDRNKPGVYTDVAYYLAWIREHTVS

[2] = target: T2, fibronectin domain type II (FBII) of FXII (UniProt P00748); assay: western blot of FXII domains probed with N4-38, anti-6xHIS-HRP detection
T2 sequence (looked up): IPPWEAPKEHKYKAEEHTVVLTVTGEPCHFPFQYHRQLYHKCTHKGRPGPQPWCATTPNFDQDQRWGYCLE

[3] = target: T3, kringle (KNG) domain of FXII (UniProt P00748); assay: as above
T3 sequence (looked up): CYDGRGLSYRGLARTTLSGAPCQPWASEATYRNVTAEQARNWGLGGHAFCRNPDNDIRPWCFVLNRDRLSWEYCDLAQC

Measured: binding

B1: nanobody N4-38 (VHH)
VHH: QVQLVESGGGLVQAGGSLRLSCAASGRTGNAYRMGWFRQAPGKEREFVAAISWNGDSTNYADSVKGRFTISRDNAKNTVYLQMNSLKPEDTAVYYCAVVKGIGVPPNMYDYWGQGTQVTVSS
notes: Alpaca nanobody expressed in E. coli from PET26b; also called N38; N4-38 antibody
binds: [1] | [2] | [3]
